Reference: patent US20110319338A1, “PEPTIDES THAT BIND EUKARYOTIC TRANSLATION INITIATION FACTOR 4E” (The Board of Regents of the University of Texas System, priority 2008, published 2011)
Not every detail of the peptide structures is certain; ends, links or a residue may be inferred. Square brackets hold non-standard residues; d marks the D form. Peptide text beside a SMILES is read from it. pGlu = O=C1CC[C@@H](C(=O)O)N1

Legend:
ES-2-GFP cells = experiment: Mouse i.p. xenograft model of epithelial ovarian cancer; assay type: in vivo
Description: FIGS. 4A-4C. Anti-tumor activity of [DLys6]GnRH-4EBP1-WT peptide in a xenograft model of EOC. Female nude mice were inoculated i.p. with one million ES-2-GFP cells. At Day 9 after tumor cell inoculation, one group of mice (n=5) was sacrificed (pre-treatment). At Day 9, other groups of mice were administered by i.p. injection with saline (n=11), [DLys6]GnRH (n=11) or [DLys6]GnRH-4EBP1-WT (n=11) at a dose of 3.0 nanomoles per gram body weight Saline or peptide was administered every 2 days thereafter for 11 days (6 doses in total), and mice were sacrificed on Day 20. (FIG. 4A) Visualization under a fluorescence stereoscope of i.p. tumors in pre-treatment mice (at Day 9) including implants on the omentum (ome), and in mice treated with saline, with agonist alone and with [DLys6]GnRH-4EBP1-WT (at Day 20). (FIG. 4B) Hematoxylin eosin-stained sections of tissues of pre-treatment mice (at Day 9) and of saline- and peptide-treated mice (at Day 20). […] (FIG. 4C) Quantification of i.p. tumor burden in pre-treatment and treated mice that completed the regimen, expressed as the average percent of area of fluorescence within the abdominal cavity in captured images, and volume of ascites. […]
Animal Studies. […] Tumors were visualized under a Leica MZML III fluorescence stereomicroscope equipped with mercury lamp power supply and green fluorescent protein (GFP) filter set. […]

[1] = Tolerability in xenograft mice: observation, histology and TUNEL-staining of tissues; assay type: in vivo; details: Day 20, tumors adjacent to liver and pancreas
Text: FIGS. 11A-11B. TUNEL-staining of tissues of saline- and peptide-treated mice. […] Shown are normal tissues of the brain, heart, lung, liver, breast, pancreas and ovary, and tumor implants on the omentum. Bar, 60 micrometers. Pancreatic and ovarian sections show normal pancreatic (P) and ovarian (O) tissues plus adjacent tumor (T). Also shown are normal tissues of the pituitary and bone marrow. Bar, 20 micrometers
Animal Studies. Animal studies were approved by the Institutional Animal Care and Use Committee. The ES-2 cell line stably expressing enhanced green fluorescent protein (ES-2-GFP) has been described in previous work (Hara et al., 2007). Four-week-old female nude mice were inoculated i.p. at one site in the lower abdomen with 10^6 ES-2-GFP cells. At Day 9 after tumor cell inoculation, one group of mice (n=5) were killed by CO2 asphyxiation. […] Tumors were visualized under a Leica MZML III fluorescence stereomicroscope equipped with mercury lamp power supply and green fluorescent protein (GFP) filter set. Tumor burden was quantified by measuring areas of fluorescence signals within the abdominal cavity in captured images by using Image Pro Plus 5.0 software (Media Cybernetics, Bethesda, Md.). […]

## CC[C@H](C)[C@H](NC(=O)[C@H](CCCNC(=N)N)NC(=O)[C@@H](NC(=O)CNC(=O)CNC(=O)[C@@H]1CCCN1C(=O)[C@H](CCCNC(=N)N)NC(=O)[C@H](CC(C)C)NC(=O)[C@@H](CCCCN)NC(=O)[C@H](Cc1ccc(O)cc1)NC(=O)[C@H](CO)NC(=O)[C@H](Cc1c[nH]c2ccccc12)NC(=O)[C@H](Cc1c[nH]cn1)NC(=O)[C@@H]1CCC(=O)N1)[C@@H](C)O)C(=O)N[C@H](C(=O)N[C@@H](Cc1ccc(O)cc1)C(=O)N[C@@H](CC(=O)O)C(=O)N[C@@H](CCCNC(=N)N)C(=O)N[C@@H](CCCCN)C(=O)N[C@@H](Cc1ccccc1)C(=O)N[C@@H](CC(C)C)C(=O)N[C@@H](CCSC)C(=O)N[C@@H](CCC(=O)O)C(=O)N[C@@H](CS)C(=O)N[C@@H](CCCNC(=N)N)C(=O)N[C@@H](CC(N)=O)C(=O)N[C@@H](CO)C(=O)N1CCC[C@H]1C(=O)N[C@H](C(=O)N[C@H](C(=O)O)[C@@H](C)O)C(C)C)[C@@H](C)CC [[DLys6]GnRH-4EBP1-WT] ([pGlu]HWSY[dK]LRPGGTRIIYDRKFLMECRNSPVT-OH)
ES-2-GFP cells; mice that completed regimen, Day 20, 3.0 nanomoles per gram i.p., 6 doses
  ascites volume (mean): 1.44 mL
ES-2-GFP cells; mice that completed treatment
  reduction in ascites as compared to saline or GnRH agonist alone: 50%
[1]
  TUNEL-positive cells in adjacent tumors: TUNEL-positive cells were detected
